In patent US9163063B2, “Peptides and nanoparticles for therapeutic and diagnostic applications” (Trustees of Dartmouth College, priority 2009, dated 2015):
“Also recorded” adds a separate entry of the source. At least one peptide structure holds a part that was inferred or is arguable (an end, a ring closure or a residue). Peptide text beside a SMILES is read from it. * marks the point of attachment. Myristoyl = CCCCCCCCCCCCCC(=O)*

Legend:
[1] = tested on: MIAPaCa2 pancreatic cancer cells; test: Fluorescence microscopy of FITC labeled blocking peptide; type: cell-based, human; settings: myristoylated peptide
[2] = tested on: human pancreatic carcinoma cells; test: Thymidine incorporation assay after peptide treatment; type: cell-based; settings: 24 h of peptide treatment
[3] = tested on: different pancreatic carcinoma cell lines; test: MTS viability assay, cell line not specified at the place; type: cell-based, human
[4] = tested on: PANC1 cells; test: MTS viability assay; type: cell-based, human; settings: 24 h treatment
[5] = tested on: AsPC1 cells; test: MTS viability assay; type: cell-based, human; settings: 24 h treatment
[6] = tested on: MIA-PaCa2 cells; test: Subcutaneous MIA-PaCa2 tumor, daily intratumoral peptide, 25 days (Example 2); type: in vivo, mice; settings: 10 mM peptide daily into the tumor, control DMSO
[7] = tested on: AsPC1 pancreatic cancer cell; test: AsPC1 proliferation, peptide versus gold nanoparticle bioconjugate; type: cell-based, human; settings: in vitro
[8] = target: T1, association between GIPC/synectin and IGF-1R (Homo sapiens, UniProt O14908); test: Immunoprecipitation for FLAG-GIPC, immunoblot against IGF-1R; settings: MIAPaCa2 cells, 100 μM peptide, proteasome inhibitor
T1 sequence (O14908 1-333): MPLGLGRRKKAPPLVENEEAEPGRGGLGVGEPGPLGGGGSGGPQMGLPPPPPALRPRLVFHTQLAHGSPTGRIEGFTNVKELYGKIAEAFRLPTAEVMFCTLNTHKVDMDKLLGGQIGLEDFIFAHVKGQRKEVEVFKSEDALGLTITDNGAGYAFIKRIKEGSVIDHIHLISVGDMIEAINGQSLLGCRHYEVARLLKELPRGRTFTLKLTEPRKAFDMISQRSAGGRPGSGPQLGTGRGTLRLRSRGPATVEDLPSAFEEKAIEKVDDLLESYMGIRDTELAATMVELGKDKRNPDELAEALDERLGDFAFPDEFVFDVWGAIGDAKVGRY

[9] = target: T2, PDZ domain of GIPC/synectin (Homo sapiens, UniProt O14908); test: Phage ELISA / phage binding assay with N-terminal biotinylated peptides; settings: GIPC-PDZ T7 phage
T2 construct: dsDNA encoding the PDZ domain of GIPC/synectin was double-digested with EcoRI and HindIII; made in house; host or cells: T7 phage grown in E. coli BLT5403
T2 sequence (O14908 133-213 limits assumed): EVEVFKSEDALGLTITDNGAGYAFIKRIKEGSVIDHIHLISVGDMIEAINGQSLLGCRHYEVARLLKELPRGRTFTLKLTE
Protocol: dsDNA encoding the PDZ domain of GIPC/synectin was double-digested with EcoRI and HindIII, and the DNA (0.8 μL of a 45 nM (7.7 ng/μL) solution) was used in the ligation reaction with the T7 Select 10-3 vector arms (Novagen, 0.5 μL), along with 10× ligase buffer (0.25 μL); ATP (10 mM, 0.25 μL, final concentration 1 mM); DTT (100 mM, 0.25 μL); and T4 DNA ligase (0.5 μL, 1 unit/μL). The sample was incubated at 16° C. for 16 h. The T7 phage packaging reaction was performed by adding packaging extract (Novagen, 12.5 μL, or half the manufacturer's recommended amount) to the ligation reaction sample (2.5 μL) and allowing it to incubate for 2 h at room temperature. The reaction was stopped by the addition of a sterile LB medium (135 μL). A plaque assay was performed to determine the number of recombinant phage generated. E. coli BTL5403 was grown at 37° C. with shaking in LB/Amp50 medium (10 mL) until OD˜1.0 was reached. Top agarose (10 mL) was melted and equilibrated to this temperature. A series of dilutions was prepared prior to plating the phage. The first dilution was generated by adding packaged phage (10 μL) to LB/Amp50 (990 μL) for a total of 100-fold dilution (10^2). […] Plaques generated were counted to determine the titer and the number of recombinants generated. […]

[10] = tested on: MIAPaCa2 cells; test: MTS viability assay; type: cell-based, human; settings: 24 h treatment
[11] = tested on: IGF-1R; test: Western blot of IGF-1R protein levels after peptide treatment; type: cell-based; settings: for IGF-1R protein levels with proteasome inhibitor: 25 μM proteasome inhibitor; for IGF-1R protein levels: 200 μM, 100 μM overnight, 50 ng/ml rhIGF-1

SMILES: CCCCCCCCCCCCCC(=O)N1CCC[C@H]1C(=O)N[C@@H](CO)C(=O)N[C@@H](CCC(N)=O)C(=O)N[C@@H](CO)C(=O)N[C@@H](CO)C(=O)N[C@@H](CO)C(=O)N[C@@H](CCC(=O)O)C(=O)N[C@@H](C)C(=O)O [PSQSSSEA, P-S-Q-S-S-S-E-A] (Myristoyl-PSQSSSEA-OH)
- entry of the peptide into the cancer cells [1]: entry of the blocking peptide into the cancer cells
- proliferation (thymidine incorporation) [2]: reduction in proliferation
- viability after peptide treatment ([3]; 200 μM, 100 μM, control peptide (FIG. 2F)): dose dependent inhibition of viability
- dose at which proliferation was inhibited (MTS assay) ([3]; Example 2): 200 µM
- viability ([3]; concentration range 0-300 μM (FIG. 2d)): inhibited in a dose dependent fashion
- dose with clear reduction of viability [4]: 150 µM
- dose with clear reduction of viability [5]: 100 µM
- average tumor size in the treatment group ([6]; day 22): 268 mm^3
- average tumor size in the treatment group ([6]; day 25): 480 mm^3
- concentration range that blocks cell proliferation [7]: 100-200 μm
- association between GIPC/synectin and IGF-1R [8]: significantly reduced; also recorded: effective in reducing the association
- association between GIPC/synectin and IGF-1R ([8]; listed as GIPC-PDZ inhibitor): significantly reduced
- binding to the PDZ domain of GIPC/synectin [9]: strong affinity
- binding to the PDZ domain of GIPC/synectin ([9]; listed as GAIP octapeptide): significantly enhanced binding
- dose with clear reduction of viability [10]: 100 µM
- IGF-1R protein levels with proteasome inhibitor [11]: recovers IGF-1R
- IGF-1R protein levels with proteasome inhibitor ([11]; listed as GIPC-PDZ inhibitor): prevents the IGF-1R protein reduction
- IGF-1R protein levels [11]: downregulation of IGF-1R
- IGF-1R protein levels ([11]; listed as GAIP peptide): downregulation of IGF-1R
- IGF-1R protein levels ([11]; listed as GIPC-PDZ inhibitor): decreased protein levels of IGF-1R
